Experimental data as given in PMC6879014, “Biophysical screening methods for extracellular domain peptide receptors, application to natriuretic peptide receptor C ligands” (Chemical Biology & Drug Design, 2018).
Results are given in words; binding and its absence hold for the method and conditions named. Some binding calls cover weakened binding; strength is not graded here. Where a sequence is shown, tags or fusion partners need not be part of it.

B1: Human full-length (FL) NPR-C (27–541)-10His-Flag (receptor, UniProt P17342-2 27-540)
chain: GGVGGGGGGAGIGGGRQEREALPPQKIEVLVLLPQDDSYLFSLTRVRPAIEYALRSVEGNGTGRRLLPPGTRFQVAYEDSDCGNRALFSLVDRVAAARGAKPDLILGPVCEYAAAPVARLASHWDLPMLSAGALAAGFQHKDSEYSHLTRVAPAYAKMGEMMLALFRHHHWSRAALVYSDDKLERNCYFTLEGVHEVFQEEGLHTSIYSFDETKDLDLEDIVRNIQASERVVIMCASSDTIRSIMLVAHRHGMTSGDYAFFNIELFNSSSYGDGSWKRGDKHDFEAKQAYSSLQTVTLLRTVKPEFEKFSMEVKSSVEKQGLNMEDYVNMFVEGFHDAILLYVLALHEVLRAGYSKKDGGKIIQQTWNRTFEGIAGQVSIDANGDRYGDFSVIAMTDVEAGTQEVIGDYFGKEGRFEMRPNVKYPWGPLKLRIDENRIVEHTNSSPCKSCGLEESAVTGIVVGALLGAGLLMAFYFFRKKYRITIERRTQQEESNLGKHRELREDSIRSHFSVA

Tests used:
[1] = target: T1, Human full-length (FL) NPR-C (27–541)-10His-Flag (human) (UniProt P17342); assay: fluorescence polarisation; competition against 15 nM Flu-P19 probe; FL NPR-C 150 nM or ECD NPR-C 400 nM; competitor 4.89 nM-2.5 uM; HEPES buffer, 3% DMSO; Ki computed from IC50 with a web-based converter; both purified
T1 sequence: B1 chain

[2] = target: T2, extracellular domain (ECD) NPR-C (27–481)-6His (human) (UniProt P17342); assay: as above
T2 sequence: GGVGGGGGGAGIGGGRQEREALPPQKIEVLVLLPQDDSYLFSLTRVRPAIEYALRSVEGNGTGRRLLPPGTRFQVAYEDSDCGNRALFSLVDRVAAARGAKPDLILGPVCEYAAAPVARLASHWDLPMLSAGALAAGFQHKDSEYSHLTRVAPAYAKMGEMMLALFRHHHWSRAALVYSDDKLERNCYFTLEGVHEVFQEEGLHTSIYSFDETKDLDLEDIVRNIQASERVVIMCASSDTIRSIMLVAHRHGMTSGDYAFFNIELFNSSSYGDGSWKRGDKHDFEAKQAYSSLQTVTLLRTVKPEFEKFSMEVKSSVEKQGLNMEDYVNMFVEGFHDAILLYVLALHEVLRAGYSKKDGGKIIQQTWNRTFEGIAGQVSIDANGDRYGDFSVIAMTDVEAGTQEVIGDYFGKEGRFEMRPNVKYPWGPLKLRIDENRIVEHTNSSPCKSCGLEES

[3] = target: T3, 5-carboxyfluorescein N-terminus labelled GLSKG[…]NS (Flu-P19); assay: fluorescence polarisation; protein titration (0.12-500 nM NPR-C) at 15 nM Flu-P19 probe; HEPES buffer, 3% DMSO, 80 ul; both purified
T3 sequence (peptide, 5-carboxyfluorescein on the N-terminus): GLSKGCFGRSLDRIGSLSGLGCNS

[4] = target: T1, Human full-length (FL) NPR-C (27–541)-10His-Flag (human); assay: non-reducing SDS-PAGE; 10%-20% Tris-Glycine gel, protein loaded under reducing or non-reducing conditions; shows disulphide-bonded dimers only; both purified

| Binder | binding [1] | binding [2] | binding [3] | binding [4] |
| --- | --- | --- | --- | --- |
| GLSKGCFGRSLDRIGSLSGLGCNS (5-carboxyfluorescein on the N-terminus) [5-carboxyfluorescein N-terminus labelled GLSKG[…]NS (Flu-P19)] | binds | binds |  |  |
| B1 |  |  | binds | binds |
